Measured values taken from US11213514B2, “Alpha-1-adrenergic receptor agonist therapy” (The Regents of the University of California, priority 2016, dated 2022).

Columns and labels:
wild type (WT) mice = test: Doxorubicin cardiotoxicity in wild type mice (survival, anatomy, conscious echocardiography, fibrosis); conditions: Day 0 (baseline) echocardiography
Description: (§1) FIGS. 2A-2B. […] On Day 7 the mice underwent echocardiography prior to sacrifice. FIG. 2A. Fractional shortening, a measure of contractile function, with representative M-mode echocardiogram images. […] FIG. 2B. Heart sections from some of these mice (i.e. wild type mice) stained with Masson Trichrome. Fibrosis (weighted average collagen content) was quantified using Aperio ImageScope software.
(§2) On Day 7, mice underwent echocardiography and were sacrificed by cervical dislocation after an overdose of isoflurane.
(§3) Conscious transthoracic echocardiography was performed on loosely restrained mice in the McAllister Heart Institute Animal Models Core using a VisualSonics Vevo 2100 ultrasound system (VisualSonics, Inc., Toronto, Ontario, Canada). Two-dimensional and M-mode echocardiography were performed in the parasternal long-axis view at the level of the papillary muscle. Left ventricular systolic function was assessed by fractional shortening (% FS=[(LVEDD−LVESD)/LVEDD]×100). Reported values represent the average of at least five cardiac cycles per mouse. Sonographers and investigators were blinded to mouse treatment condition during image acquisition and analysis.
Mice were heparinized and the heart was perfused with 10 mL PBS followed by 20 mL of 4% PFA/PBS through a 23 G butterfly needle, excised and placed in 4% PFA/PBS for 24 hours then transferred to 70% EtOH. Hearts were stained using standard methods in the UNC Histology Research Core. Fibrosis was analyzed in 3 Masson Trichrome (MT)-stained sections of 4 or 5 hearts from each treatment group. Slides were scanned using an Aperio ScanScope (Aperio Technologies, Vista, Calif.) and analyzed in Aperio ImageScope software. The Algorithm Positive Pixel Count v9 was used to measure collagen staining by MT using hue value (0.66) and hue width (0.1) The N positive/N total value was used to determine a weighted average collagen content (%) for each section.

[1] = tested on: mice lacking the α1A-AR (AKO); test: Doxorubicin cardiotoxicity in mice lacking the α1A-AR (survival, anatomy, conscious echocardiography); conditions: α1A-KO mice, Day 0 (baseline) echocardiography
Description: as §1
C57Bl6J mice were from Jackson Laboratory or from our breeding colony. α1A-AR knockout (AKO) mice from Paul C. Simpson were congenic on a C57Bl6J background for at least 10 generations and produced by heterozygous breeding in our animal facility. 8-12 week old males were used in all experiments. Female Sprague-Dawley rats with newborn litters were from Charles River. Animal care and experimental protocols were approved by the UNC IACUC and complied with Guide for the Care and the use of Laboratory Animals (National Research Council Committee for the Update of the Guide for the Care and Use of Laboratory Animals, 2011).
as §2, §3

SMILES | FS (Fractional Shortening) (wild type (WT) mice; Dox + 1240 20 μg/kg/d group) | LVs vol (Left Ventricular systolic volume) (wild type (WT) mice; Dox + 1240 20 μg/kg/d group) | PWd (Posterior Wall, diastole) (wild type (WT) mice; Dox + 1240 20 μg/kg/d group) | FS (Fractional Shortening) ([1]; Dox + 1240 20 μg/kg/d group) | HR (Heart Rate) ([1]; Dox + 1240 20 μg/kg/d group) | FS (Fractional Shortening) (wild type (WT) mice; Dox + vehicle group) | LVs vol (Left Ventricular systolic volume) (wild type (WT) mice; Dox + vehicle group) | PWd (Posterior Wall, diastole) (wild type (WT) mice; Dox + vehicle group) | FS (Fractional Shortening) ([1]; Dox + vehicle group) | HR (Heart Rate) ([1]; Dox + vehicle group)
Cc1c(OCC2=NCCN2)ccc(Cl)c1NS(C)(=O)=O [dabuzalgron, N-[6-chloro-3-(4,5-dihydro-1H-imidazol-2-ylmethoxy)-2-methylphenyl]methanesulfonamide] | 50 ± 3% | 5 ± 1 mL | 0.9 ± 0^ cm | 54 ± 1% | 703 ± 13 beats per minute | – | – | – | – | –
COc1cccc2c1C(=O)c1c(O)c3c(c(O)c1C2=O)C[C@@](O)(C(=O)CO)C[C@@H]3O[C@H]1C[C@H](N)[C@H](O)[C@H](C)O1 [DOX, doxorubicin] | – | – | – | – | – | 54 ± 2% | 5 ± 1 mL | 0.8 ± 0^ cm | 55 ± 1% | 679 ± 38 beats per minute
